# Data as given in the supplement of paper PMC12819154, “High-throughput peptide-centric local stability assay extends protein–ligand identification to membrane proteins, tissues and bacteria” (Nature Structural & Molecular Biology, 2025).
# Sequences of proteins named here, by UniProt entry; tags and fusion partners are left off. A change or cut given only in a name is not applied to a line headed by its entry.
# UniProt Q13424: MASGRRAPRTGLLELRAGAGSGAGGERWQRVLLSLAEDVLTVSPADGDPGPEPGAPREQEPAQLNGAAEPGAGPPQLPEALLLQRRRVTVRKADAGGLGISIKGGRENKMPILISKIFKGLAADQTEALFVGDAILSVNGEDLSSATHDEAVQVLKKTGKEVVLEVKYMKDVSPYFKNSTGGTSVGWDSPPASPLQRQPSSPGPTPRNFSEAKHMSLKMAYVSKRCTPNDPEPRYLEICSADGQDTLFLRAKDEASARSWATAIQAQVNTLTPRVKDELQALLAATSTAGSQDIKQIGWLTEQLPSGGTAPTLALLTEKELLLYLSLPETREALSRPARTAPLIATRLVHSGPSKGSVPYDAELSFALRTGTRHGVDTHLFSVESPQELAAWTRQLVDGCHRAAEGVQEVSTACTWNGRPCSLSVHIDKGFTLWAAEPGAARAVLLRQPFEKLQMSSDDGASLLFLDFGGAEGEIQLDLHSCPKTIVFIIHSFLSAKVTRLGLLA
# UniProt Q14691: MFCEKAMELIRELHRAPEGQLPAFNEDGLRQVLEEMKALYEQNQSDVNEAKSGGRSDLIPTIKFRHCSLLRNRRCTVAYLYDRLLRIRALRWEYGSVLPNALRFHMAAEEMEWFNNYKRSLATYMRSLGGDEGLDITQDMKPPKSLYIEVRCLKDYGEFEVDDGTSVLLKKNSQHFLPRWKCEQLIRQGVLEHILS
# UniProt Q13425: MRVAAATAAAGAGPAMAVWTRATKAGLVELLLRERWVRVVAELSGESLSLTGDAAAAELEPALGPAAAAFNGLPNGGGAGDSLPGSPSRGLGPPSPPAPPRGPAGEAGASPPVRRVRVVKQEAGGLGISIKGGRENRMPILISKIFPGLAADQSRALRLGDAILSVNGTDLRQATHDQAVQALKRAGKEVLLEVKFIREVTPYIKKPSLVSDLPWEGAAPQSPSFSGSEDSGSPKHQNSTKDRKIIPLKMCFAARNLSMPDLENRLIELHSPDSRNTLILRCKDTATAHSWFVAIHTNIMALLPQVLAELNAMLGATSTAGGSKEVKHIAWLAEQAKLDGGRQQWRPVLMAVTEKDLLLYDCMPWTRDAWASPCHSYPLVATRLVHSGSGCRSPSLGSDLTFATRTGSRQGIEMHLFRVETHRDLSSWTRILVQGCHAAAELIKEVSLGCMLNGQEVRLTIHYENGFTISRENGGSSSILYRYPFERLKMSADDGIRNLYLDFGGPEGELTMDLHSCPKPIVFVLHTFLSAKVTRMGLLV
# UniProt Q14651: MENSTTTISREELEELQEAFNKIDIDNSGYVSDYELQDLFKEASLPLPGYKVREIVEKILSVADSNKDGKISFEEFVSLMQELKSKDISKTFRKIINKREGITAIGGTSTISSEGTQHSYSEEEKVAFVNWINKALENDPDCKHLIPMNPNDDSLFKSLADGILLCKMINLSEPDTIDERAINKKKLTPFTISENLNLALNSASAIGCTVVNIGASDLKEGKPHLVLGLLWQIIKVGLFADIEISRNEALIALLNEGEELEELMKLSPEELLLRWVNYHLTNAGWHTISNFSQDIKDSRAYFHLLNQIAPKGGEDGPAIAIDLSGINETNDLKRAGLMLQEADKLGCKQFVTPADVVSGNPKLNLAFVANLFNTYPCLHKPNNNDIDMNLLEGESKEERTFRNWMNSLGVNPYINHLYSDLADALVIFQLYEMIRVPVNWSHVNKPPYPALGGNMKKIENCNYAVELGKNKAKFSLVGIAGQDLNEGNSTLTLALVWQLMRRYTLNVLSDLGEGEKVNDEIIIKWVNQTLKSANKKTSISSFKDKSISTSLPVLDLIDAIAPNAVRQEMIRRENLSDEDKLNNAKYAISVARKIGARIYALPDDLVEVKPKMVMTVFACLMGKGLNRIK
# UniProt Q13637: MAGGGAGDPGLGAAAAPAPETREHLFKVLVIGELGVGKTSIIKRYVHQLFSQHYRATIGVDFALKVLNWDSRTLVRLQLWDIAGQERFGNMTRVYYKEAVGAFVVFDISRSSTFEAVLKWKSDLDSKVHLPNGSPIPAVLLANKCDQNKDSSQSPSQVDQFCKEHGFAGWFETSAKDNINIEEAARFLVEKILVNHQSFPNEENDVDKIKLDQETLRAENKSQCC
# UniProt Q14469: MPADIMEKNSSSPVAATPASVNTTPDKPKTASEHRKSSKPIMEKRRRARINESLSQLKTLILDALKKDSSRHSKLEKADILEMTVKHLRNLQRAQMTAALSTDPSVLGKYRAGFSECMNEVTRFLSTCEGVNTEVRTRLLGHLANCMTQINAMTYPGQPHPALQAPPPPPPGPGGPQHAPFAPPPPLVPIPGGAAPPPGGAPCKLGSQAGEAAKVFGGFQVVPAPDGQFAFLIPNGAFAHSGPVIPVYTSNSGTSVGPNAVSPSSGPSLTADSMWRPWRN
# UniProt Q13503: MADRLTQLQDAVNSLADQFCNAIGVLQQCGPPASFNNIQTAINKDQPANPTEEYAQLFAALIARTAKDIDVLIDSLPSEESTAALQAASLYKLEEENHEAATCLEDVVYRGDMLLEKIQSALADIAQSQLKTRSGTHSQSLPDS
# UniProt Q13474: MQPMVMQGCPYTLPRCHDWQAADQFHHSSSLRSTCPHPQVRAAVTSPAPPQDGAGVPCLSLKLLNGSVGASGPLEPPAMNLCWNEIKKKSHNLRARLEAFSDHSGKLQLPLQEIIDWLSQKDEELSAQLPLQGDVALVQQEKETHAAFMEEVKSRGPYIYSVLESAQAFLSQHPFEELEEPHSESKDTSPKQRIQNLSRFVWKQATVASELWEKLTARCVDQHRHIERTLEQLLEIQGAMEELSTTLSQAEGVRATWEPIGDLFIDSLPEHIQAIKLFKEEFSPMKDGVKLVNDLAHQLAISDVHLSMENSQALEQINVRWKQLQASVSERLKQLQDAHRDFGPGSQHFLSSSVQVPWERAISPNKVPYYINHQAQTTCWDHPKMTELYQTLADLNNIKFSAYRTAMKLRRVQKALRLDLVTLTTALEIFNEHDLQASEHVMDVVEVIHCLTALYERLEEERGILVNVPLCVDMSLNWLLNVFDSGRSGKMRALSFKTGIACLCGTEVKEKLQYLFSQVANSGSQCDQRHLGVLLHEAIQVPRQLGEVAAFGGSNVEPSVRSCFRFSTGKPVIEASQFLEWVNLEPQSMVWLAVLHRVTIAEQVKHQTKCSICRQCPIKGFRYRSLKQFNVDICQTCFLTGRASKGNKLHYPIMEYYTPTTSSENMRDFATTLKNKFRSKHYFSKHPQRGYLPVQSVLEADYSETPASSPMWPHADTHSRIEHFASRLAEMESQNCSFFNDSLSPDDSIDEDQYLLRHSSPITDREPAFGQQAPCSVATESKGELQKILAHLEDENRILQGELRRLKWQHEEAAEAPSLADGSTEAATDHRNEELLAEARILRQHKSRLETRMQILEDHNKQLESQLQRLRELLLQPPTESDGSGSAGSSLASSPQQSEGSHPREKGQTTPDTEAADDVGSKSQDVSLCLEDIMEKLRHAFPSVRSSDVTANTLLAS
# UniProt Q14657: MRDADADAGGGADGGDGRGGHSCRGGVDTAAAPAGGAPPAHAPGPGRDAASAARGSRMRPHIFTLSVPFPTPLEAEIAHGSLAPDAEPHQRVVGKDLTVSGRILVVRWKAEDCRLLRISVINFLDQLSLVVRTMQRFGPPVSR
# UniProt Q14C86: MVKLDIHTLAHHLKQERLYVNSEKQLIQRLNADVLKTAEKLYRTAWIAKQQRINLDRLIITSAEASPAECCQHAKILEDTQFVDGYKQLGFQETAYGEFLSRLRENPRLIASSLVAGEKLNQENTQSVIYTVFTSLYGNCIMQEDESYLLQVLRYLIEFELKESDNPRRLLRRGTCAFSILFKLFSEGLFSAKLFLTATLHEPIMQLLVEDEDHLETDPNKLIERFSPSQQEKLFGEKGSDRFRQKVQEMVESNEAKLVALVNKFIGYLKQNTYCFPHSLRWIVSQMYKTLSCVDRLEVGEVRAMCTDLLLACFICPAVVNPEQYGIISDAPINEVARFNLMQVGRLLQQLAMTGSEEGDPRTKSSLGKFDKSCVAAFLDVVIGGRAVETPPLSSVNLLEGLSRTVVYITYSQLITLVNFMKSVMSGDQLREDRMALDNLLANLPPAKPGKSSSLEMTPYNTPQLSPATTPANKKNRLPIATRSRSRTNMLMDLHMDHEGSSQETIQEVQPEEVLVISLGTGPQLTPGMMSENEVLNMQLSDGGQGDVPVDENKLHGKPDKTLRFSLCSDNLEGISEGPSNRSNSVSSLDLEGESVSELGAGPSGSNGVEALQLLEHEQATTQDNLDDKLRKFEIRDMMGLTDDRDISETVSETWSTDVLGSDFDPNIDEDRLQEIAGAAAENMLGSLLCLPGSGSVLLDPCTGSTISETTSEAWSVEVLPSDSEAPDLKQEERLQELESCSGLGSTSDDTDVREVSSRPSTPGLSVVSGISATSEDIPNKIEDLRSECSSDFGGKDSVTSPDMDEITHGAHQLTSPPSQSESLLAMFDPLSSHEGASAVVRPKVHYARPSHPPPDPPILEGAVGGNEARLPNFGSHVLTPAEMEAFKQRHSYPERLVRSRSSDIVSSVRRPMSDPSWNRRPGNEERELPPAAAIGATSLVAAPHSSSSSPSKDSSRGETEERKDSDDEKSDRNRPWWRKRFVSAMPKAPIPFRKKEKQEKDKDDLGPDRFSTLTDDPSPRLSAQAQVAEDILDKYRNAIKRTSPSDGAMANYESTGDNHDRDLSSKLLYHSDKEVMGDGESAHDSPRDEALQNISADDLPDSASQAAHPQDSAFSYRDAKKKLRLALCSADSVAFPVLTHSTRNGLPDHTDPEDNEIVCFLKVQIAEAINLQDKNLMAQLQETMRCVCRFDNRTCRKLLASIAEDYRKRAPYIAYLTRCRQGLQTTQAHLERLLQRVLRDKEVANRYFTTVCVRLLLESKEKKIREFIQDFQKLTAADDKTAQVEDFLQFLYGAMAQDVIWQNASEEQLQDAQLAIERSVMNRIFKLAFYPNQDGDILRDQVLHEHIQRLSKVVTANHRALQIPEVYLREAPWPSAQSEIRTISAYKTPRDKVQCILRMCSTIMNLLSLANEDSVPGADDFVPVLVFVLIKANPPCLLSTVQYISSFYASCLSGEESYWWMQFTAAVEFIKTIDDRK
# UniProt Q14126: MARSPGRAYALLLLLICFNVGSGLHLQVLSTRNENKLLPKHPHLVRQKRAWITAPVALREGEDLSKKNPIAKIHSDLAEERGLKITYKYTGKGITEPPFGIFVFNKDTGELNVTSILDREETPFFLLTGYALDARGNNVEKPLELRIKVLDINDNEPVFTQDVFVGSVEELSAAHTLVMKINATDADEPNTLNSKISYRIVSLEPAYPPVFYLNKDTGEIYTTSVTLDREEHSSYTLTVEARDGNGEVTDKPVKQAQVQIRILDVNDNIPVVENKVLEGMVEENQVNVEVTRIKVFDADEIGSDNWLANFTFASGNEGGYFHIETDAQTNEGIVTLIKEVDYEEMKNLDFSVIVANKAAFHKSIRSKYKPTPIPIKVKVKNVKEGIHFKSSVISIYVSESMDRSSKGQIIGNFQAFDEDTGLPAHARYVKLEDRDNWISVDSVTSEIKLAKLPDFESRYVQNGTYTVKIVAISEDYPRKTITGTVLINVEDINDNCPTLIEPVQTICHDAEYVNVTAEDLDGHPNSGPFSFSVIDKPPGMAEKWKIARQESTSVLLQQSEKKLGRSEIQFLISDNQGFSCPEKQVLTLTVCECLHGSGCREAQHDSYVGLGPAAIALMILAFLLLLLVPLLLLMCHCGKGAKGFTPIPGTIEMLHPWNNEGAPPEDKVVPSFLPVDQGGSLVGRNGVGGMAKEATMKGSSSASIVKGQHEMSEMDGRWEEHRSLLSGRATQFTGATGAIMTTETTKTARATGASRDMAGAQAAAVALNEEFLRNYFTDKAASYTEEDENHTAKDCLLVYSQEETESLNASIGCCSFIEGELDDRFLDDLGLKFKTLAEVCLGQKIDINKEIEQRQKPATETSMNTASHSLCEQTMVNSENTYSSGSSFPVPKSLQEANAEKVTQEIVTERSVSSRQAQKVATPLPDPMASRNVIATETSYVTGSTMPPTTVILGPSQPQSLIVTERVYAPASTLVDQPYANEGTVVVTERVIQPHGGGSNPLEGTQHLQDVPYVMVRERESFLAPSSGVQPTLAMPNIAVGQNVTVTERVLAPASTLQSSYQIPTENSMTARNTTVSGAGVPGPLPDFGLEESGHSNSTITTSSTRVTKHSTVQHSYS
# UniProt Q14012: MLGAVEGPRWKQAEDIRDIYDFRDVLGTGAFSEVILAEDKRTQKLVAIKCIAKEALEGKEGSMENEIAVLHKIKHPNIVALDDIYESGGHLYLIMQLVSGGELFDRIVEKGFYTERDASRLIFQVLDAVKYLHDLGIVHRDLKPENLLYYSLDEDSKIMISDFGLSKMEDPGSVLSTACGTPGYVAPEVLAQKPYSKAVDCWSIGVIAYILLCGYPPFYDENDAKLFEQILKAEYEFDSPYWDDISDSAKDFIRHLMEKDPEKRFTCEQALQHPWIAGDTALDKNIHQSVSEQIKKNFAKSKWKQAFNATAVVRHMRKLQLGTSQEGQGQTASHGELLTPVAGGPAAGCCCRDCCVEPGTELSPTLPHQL
# Some of the results follow. Small differences around the control level are noise.
# Compound: Cc1nc(Nc2ncc(C(=O)Nc3c(C)cccc3Cl)s2)cc(N2CCN(CCO)CC2)n1 [dasatinib]
# Test: log2 fold change of tryptic peptide abundance, ligand vs vehicle (limited proteolysis) (log2 ratio); higher = more trypsin-susceptible (destabilized)
# Settings: ligand concentration: 5 uM; sample: K562 cleared lysate
row,Target,log2 fold change
1,"SNTA1 (peptide sequence: QLVDGCHR, peptide start residue: 395) (UniProt Q13424)",0.499
2,"NOLC1 (peptide sequence: VAGGAAPSKPASAK, peptide start residue: 497) (UniProt Q14978)",0.129
3,"GINS1 (peptide sequence: NSQHFLPR, peptide start residue: 172) (UniProt Q14691)",0.207
4,"UniProt Q13118 (peptide sequence: MEMISERPK, peptide start residue: 16)",0.385
5,"SNTB2 (peptide sequence: DAWASPCHSYPLVATR, peptide start residue: 368) (UniProt Q13425)",0.578
6,"G3BP1 (peptide sequence: FYVHNDIFR, peptide start residue: 124) (UniProt Q13283)",-0.156
7,"PLS1 (peptide sequence: EASLPLPGYK, peptide start residue: 42) (UniProt Q14651)",0.341
8,"KIAA0100 (peptide sequence: LLIGLSVGDKNPGKK, peptide start residue: 2214) (UniProt Q14667)",-0.32
9,"RAB32 (peptide sequence: VLVIGELGVGK, peptide start residue: 28) (UniProt Q13637)",0.484
10,"HES1 (peptide sequence: TLILDALKK, peptide start residue: 59) (UniProt Q14469)",-0.206
11,"CUL3 (peptide sequence: FLLESFNNDR, peptide start residue: 355) (UniProt Q13618)",-0.33
12,"EIF3A (peptide sequence: RGDDSRPGPWR, peptide start residue: 1160) (UniProt Q14152)",0.441
13,"UniProt Q14240 (peptide sequence: DFTVSALHGDMDQKER, peptide start residue: 297)",-0.168
14,"BIRC2 (peptide sequence: AGFYYTGVNDK, peptide start residue: 70) (UniProt Q13490)",0.464
15,"MED21 (peptide sequence: SGTHSQSLPDS, peptide start residue: 134) (UniProt Q13503)",-0.0737
16,"MTMR3 (peptide sequence: AGIEIQEGKEDPLLEKESR, peptide start residue: 710) (UniProt Q13615)",0.288
17,"GAMT (peptide sequence: ILGKPVMER, peptide start residue: 36) (UniProt Q14353)",0.0893
18,"EFR3A (peptide sequence: SLLMVTSGYK, peptide start residue: 439) (UniProt Q14156)",0.227
19,"TTLL12 (peptide sequence: HFTVMNYDPDVVLK, peptide start residue: 511) (UniProt Q14166)",-0.336

row,Target,log2 fold change
1,"UniProt Q13474 (peptide sequence: MQILEDHNK, peptide start residue: 3332)",-0.2
2,"HDAC1 (peptide sequence: KEVTEEEKTK, peptide start residue: 457) (UniProt Q13547)",-0.445
3,"FRG1 (peptide sequence: QCEINYVK, peptide start residue: 204) (UniProt Q14331)",-0.117
4,"CUL2 (peptide sequence: AVVMLEYVER, peptide start residue: 23) (UniProt Q13617)",-0.341
5,"AP3B2 (peptide sequence: KLLQMQPAQHGEIIK, peptide start residue: 467) (UniProt Q13367)",0.218
6,"GSE1 (peptide sequence: KFLTIFNLTHISAEKR, peptide start residue: 865) (UniProt Q14687)",-0.383
7,"CBX3 (peptide sequence: KSLSDSESDDSKSK, peptide start residue: 92) (UniProt Q13185)",0.429
8,"PUM1 (peptide sequence: SMDELNHDFQALALEGR, peptide start residue: 124) (UniProt Q14671)",0.0817
9,"SKP2 (peptide sequence: LLSQGVIAFR, peptide start residue: 155) (UniProt Q13309)",-0.151
10,"IRF3 (peptide sequence: HVLSCLGGGLALWR, peptide start residue: 263) (UniProt Q14653)",-0.306
11,"STX5 (peptide sequence: DVAIDMMDSR, peptide start residue: 242) (UniProt Q13190)",-0.0819
12,"LAGE3 (peptide sequence: GGVDTAAAPAGGAPPAHAPGPGR, peptide start residue: 25) (UniProt Q14657)",0.0555
13,"UniProt Q13164 (peptide sequence: DGPSAPLEAPEPR, peptide start residue: 493)",0.276
14,"GAPVD1 (peptide sequence: SECSSDFGGK, peptide start residue: 787) (UniProt Q14C86)",0.158
15,"DSG2 (peptide sequence: VATPLPDPMASR, peptide start residue: 920) (UniProt Q14126)",0.666
16,"CAMK1 (peptide sequence: QAFNATAVVR, peptide start residue: 305) (UniProt Q14012)",0.0726
17,"SQSTM1 (peptide sequence: DHRPPCAQEAPR, peptide start residue: 108) (UniProt Q13501)",0.0594
18,"EXOSC2 (peptide sequence: SAEDELAMR, peptide start residue: 124) (UniProt Q13868)",-0.48

# A different layout for some results above.
row | Target | log2 fold change
14 | GAPVD1 (peptide sequence: SECSSDFGGK, peptide start residue: 787) (UniProt Q14C86) | 0.158
15 | DSG2 (peptide sequence: VATPLPDPMASR, peptide start residue: 920) (UniProt Q14126) | 0.666
